Data: PubChem BioAssay AID2685 (National Center for Advancing Translational Sciences (NCATS), 2010)
Some of the results follow. Further columns of the screen follow, without active or inactive calls. Most of these compounds were active or inconclusive in the main read-out, so they are no random draw. Words in brackets tell the shape of the fitted curve; partial curves, single points and poor fits give uncertain potencies.

Test: qHTS Assay for Lipid Storage Modulators in Drosophila S3 Cells;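 for cell number change: cells counted by Cell Tracker Red CMTPX staining in the red channel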
Details: BODIPY lipid droplet fluorescence, 18-24 h; for cell number change: measured here: cell count max response, cells fed with added oleic acid
Outline: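 Drosophila S3 cells got compounds at several concentrations plus oleic acid (400 uM solution). Laser-scanning cytometry with 488 nm excitation read lipid droplets at 500-530 nm and cells at 575-640 nm. Percent activity was relative to 20 uM Triacsin C.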

[1] = measured here: cell number channel AC50, cells fed with added oleic acid
[2] = measured here: lipid fluorescence (Fed channel) AC50, cells fed with added oleic acid

| SMILES | cell number change [%] | AC50 [1] | AC50 [2] |
| --- | --- | --- | --- |
| CC(C)c1ccccc1NC(=S)NCc1ccncc1 | -7.43 |  |  |
| CCN(C(=O)COC(=O)COc1ccc(Cl)c(C)c1)C1CCS(=O)(=O)C1 (stereo unspecified) | -56.9 | 25.9 µM [falling, single point] | 20.6 µM [falling, single point] |
| O=C(COc1ccc(F)cc1)N(CC1=CCS(=O)(=O)C1)c1ccccc1 | 13 |  | 4.61 µM [rising, full curve] |
| Cc1ccc(CSc2nnc(-c3cccc(S(=O)(=O)N4CCOCC4)c3)n2C2CCCC2)cc1 | 0.746 |  | 4.61 µM [rising, single point] |
| O=C(C1CCN(C2CCN(Cc3ccc4c(c3)CCO4)CC2)CC1)N1CCOCC1 | 11.8 |  | 29.1 µM [rising, single point] |
| CC(C)(C)c1ccc(C(=O)N/N=C/c2ccccn2)cc1 | -27.9 |  | 29.1 µM [falling, single point] |
| COc1ccc(CCNC(=O)CSc2nnc(CNc3ccc(Cl)cc3)o2)cc1OC | -21.3 |  | 13 µM [falling, partial curve] |
| Cc1cc(C(=O)N2CCC(C(N)=O)CC2)c(C)o1 | 15.1 |  | 3.66 µM [rising, single point] |
| CC(=O)c1sc(NC(=O)C(C)Oc2ccc3c(C)cc(=O)oc3c2)nc1C (stereo unspecified) | 20.1 | 0.00411 µM [rising, full curve, poor fit] | 3.66 µM [rising, full curve] |
| O=C1C2C3C=CC(C3)C2C(=O)N1c1cccc2cccnc12 (stereo unspecified) | -15.4 |  |  |
| CC1CCN(C(=O)COc2ccc(Nc3ccccc3)cc2)CC1 | -23.1 |  | 2.59 µM [falling, single point] |
| Cc1ccc(-c2nc3ccccc3[nH]2)cc1N | 32.9 | 7.31 µM [rising, partial curve, poor fit] | 6.51 µM [rising, single point] |
| C=CCN1C(=O)c2ccccc2Sc2ccc(C(=O)N3CCN(C)CC3)cc21 | 22.7 |  |  |
| O=C(Nc1ccc(F)cc1)c1cccc(NC(=O)C2C3CC4OC(=O)C2C4C3)c1 (stereo unspecified) | 4.2 |  | 4.11 µM [rising, partial curve, poor fit] |
| CSc1ccc(-c2nc(CSCC(=O)NCCCN3CCCC3=O)c(C)o2)cc1 |  |  | 2.59 µM [falling, partial curve] |
| Cc1ccccc1OCC(=O)OC(C)C(=O)NC1CCCC1 (stereo unspecified) | -5.35 |  |  |
| NS(=O)(=O)c1cccc(NC(=O)CCCNC(=O)c2ccc(Cl)cc2)c1 | 25.8 |  | 20.6 µM [rising, partial curve] |
| C[C@@H](NC(=O)[C@@H]1Cc2ccccc2CN1)C(=O)Nc1ccc2c(c1)OCO2 | -12.3 |  | 3.66 µM [rising, single point] |
| CCOC(=O)c1c(OCCO)noc1N | -28.3 |  | 20.6 µM [falling, single point] |
| CC(C)(C)c1nnc2sc(SCC(=O)c3ccc4c(c3)OCCO4)nn2c1=O | -41.4 | 11.6 µM [falling, partial curve] | 29.1 µM [falling, single point] |

Filtered by structure, the entries above with an aryl thioether with sulfur outside any ring.

| SMILES | cell number change [%] | AC50 [1] | AC50 [2] |
| --- | --- | --- | --- |
| Cc1ccc(CSc2nnc(-c3cccc(S(=O)(=O)N4CCOCC4)c3)n2C2CCCC2)cc1 | 0.746 |  | 4.61 µM [rising, single point] |
| COc1ccc(CCNC(=O)CSc2nnc(CNc3ccc(Cl)cc3)o2)cc1OC | -21.3 |  | 13 µM [falling, partial curve] |
| CSc1ccc(-c2nc(CSCC(=O)NCCCN3CCCC3=O)c(C)o2)cc1 |  |  | 2.59 µM [falling, partial curve] |
| CC(C)(C)c1nnc2sc(SCC(=O)c3ccc4c(c3)OCCO4)nn2c1=O | -41.4 | 11.6 µM [falling, partial curve] | 29.1 µM [falling, single point] |

Going on with the list:

| SMILES | cell number change [%] | AC50 [1] | AC50 [2] |
| --- | --- | --- | --- |
| COc1cc(/C=C/C(=O)O)cc(S(=O)(=O)NCCCO)c1OC | 1.9 |  | 0.146 µM [falling, full curve, poor fit] |
| Cc1cc(C)n2nc(SCn3nnc4ccccc4c3=O)nc2n1 | 27.7 |  | 5.17 µM [rising, full curve] |
| C=CCOc1ccc(CNn2nnnc2N)cc1 | -20.8 |  |  |
| CC(=O)c1cccc(NC(=O)COC(=O)Cc2ccc(Cl)cc2)c1 | -0.803 |  |  |
| CNC(=S)Nc1ccc([N+](=O)[O-])c(C)c1 | 42.5 | 2.31 µM [rising, full curve] | 29.1 µM [rising, single point] |
| O=C1CC(N2CCN(Cc3ccccc3)CC2)C(=O)N1 (stereo unspecified) | -14 |  | 0.731 µM [falling, full curve] |
| O=C(CNC(=O)c1ccc(S(=O)(=O)N2CCCC2)cc1)N/N=C/c1ccc(Cl)cc1 | -100 | 20.6 µM [falling, single point] |  |
| COc1ccc(C(=O)NNC(=S)NC(=O)c2ccccc2)cc1 | -44.8 | 3.66 µM [falling, partial curve] | 0.411 µM [rising, single point] |
| COCCn1c(SCC(=O)Nc2nnc(C)s2)nnc1-c1ccncc1 | -24.9 | 0.103 µM [falling, full curve, poor fit] | 3.26 µM [falling, full curve] |
| COc1cccc(OCc2cc(C(=O)NCCN3CCCCC3CO)no2)c1 (stereo unspecified) | 23.5 | 2.59 µM [rising, full curve, poor fit] |  |
| O=C(Cc1c(F)cccc1Cl)Nc1cccc(S(=O)(=O)NC2=NCCCCC2)c1 | 13.6 |  | 29.1 µM [falling, single point] |
| CCOC(=O)c1cc(CC)sc1NC(=O)COC(=O)c1cc[n+]([O-])cc1 | 68 | 11.6 µM [rising, partial curve] |  |
| O=S(=O)(c1ccc(SCc2ccc(Br)cc2)nc1)N1CCOCC1 | -29.5 | 0.58 µM [falling, full curve] | 0.517 µM [falling, full curve] |
| CC(=O)CSc1ncnc2sc3c(c12)CCC3 | 4.74 |  | 13 µM [falling, partial curve] |
| CCOC(=O)C(C)Oc1ccc(OCc2ccccc2)cc1 (stereo unspecified) | -41.5 | 20.6 µM [falling, single point] |  |
| CC(C)N1CC(C(=O)Nc2ccc(C#N)cc2)CC1=O (stereo unspecified) | -4.5 |  | 3.26 µM [rising, partial curve, poor fit] |
| Cn1c(-c2ccccc2)c[n+]2c1CCCCC2 | -10.9 |  | 18.4 µM [falling, partial curve] |
| Cn1c(NCCCO)nc2c(c1=O)C1(CCCCC1)Cc1ccccc1-2 | 17.9 |  | 23.1 µM [falling, partial curve] |
| c1ccc(-c2cc(CSc3nc4ccccc4[nH]3)on2)cc1 | -47.5 | 29.1 µM [falling, single point] | 2.31 µM [rising, partial curve] |
| COc1ccc(CNS(=O)(=O)c2ccc3c(c2)NC(=O)CS3)cc1 |  |  | 0.651 µM [rising, single point] |

| SMILES | cell number change [%] | AC50 [1] | AC50 [2] |
| --- | --- | --- | --- |
| O=C(CSCc1nc2ccccc2[nH]1)Nc1ccc(Oc2ccccc2)cc1 | 6.16 |  |  |
| CCC1(C)N=C(N)Nc2nc3cc(C)c(C)cc3n21 (stereo unspecified) | -5.89 |  | 4.61 µM [falling, full curve] |
| COc1ccc(S(=O)(=O)NCc2csc(C)n2)cc1 | -0.329 |  | 0.00517 µM [falling, full curve, poor fit] |
| Cc1cc(C)c2c(N)c(S(=O)(=O)c3ccccc3)sc2n1 | -2.01 |  | 7.31 µM [falling, partial curve] |
| CC(C(=O)NC1CCCCC1)N(Cc1ccc(F)cc1)C(=O)c1snc(C(N)=O)c1N (stereo unspecified) | 1.28 |  | 0.116 µM [falling, single point] |
| CC(=O)N1CCN(S(=O)(=O)c2ccc(Cl)cc2F)CC1 | -27.9 |  | 0.517 µM [falling, full curve] |
| CC(=O)Nc1ccc(S(=O)(=O)N2CCC(NC(=O)c3ccccc3)CC2)cc1 |  | 0.326 µM [rising, partial curve, poor fit] |  |
| CCC(=O)Nc1ccccc1-c1nnn(CC(=O)N2c3ccccc3CC2C)n1 (stereo unspecified) |  | 0.103 µM [rising, partial curve] | 0.82 µM [rising, partial curve] |
| O=C(NNC(=O)c1nc(Cl)ccc1Cl)c1ccc(F)cc1 | -1.39 |  |  |
| COC(=O)c1cccc(C#CC(NP(=O)(c2ccccc2)c2ccccc2)c2ccccc2)c1 (stereo unspecified) | -38.2 | 29.1 µM [falling, single point] | 29.1 µM [falling, single point] |
| COc1ccc(Cl)cc1N(CC(=O)N(C)C)S(=O)(=O)c1ccc(C)c([N+](=O)[O-])c1 | -48.7 | 7.31 µM [falling, full curve] | 29.1 µM [falling, single point] |
| COc1ccc(C2NC(=O)NC(C)=C2C(=O)OCc2ccc3c(c2)OCO3)cc1OC (stereo unspecified) | -40.1 | 10.3 µM [falling, partial curve] | 11.6 µM [falling, partial curve] |
| CCCC(=O)N(CCN1CCOCC1)c1nc2ccc(OCC)cc2s1 | -0.824 |  | 29.1 µM [falling, single point] |
| O=[N+]([O-])c1ccc(N2CCc3ccccc3C2)nc1 | 4.4 |  | 6.51 µM [rising, partial curve, poor fit] |
| C/C=C/c1ccc(OCCCCN2CC(C)CC(C)C2)c(OC)c1 (stereo unspecified) | 11.7 | 6.51 µM [falling, single point] | 6.51 µM [falling, single point] |
| CC(=N\NC(=O)c1ccccc1)/C(=N/O)C(=O)Nc1ccccc1 | 40 | 29.1 µM [rising, partial curve, poor fit] |  |
| Cc1ccc(O)c(/C=N/NC(=O)COc2ccc3c(C)cc(=O)oc3c2)c1 | 147 | 29.1 µM [rising, single point] |  |
| O=C(c1ccoc1)N1CCCC(Nc2ccc(F)c(F)c2)C1 (stereo unspecified) | 19.6 |  |  |
| COc1cc(NS(=O)(=O)c2ccc(NC(=S)NC(=O)/C=C/c3ccc(OC)c(OC)c3)cc2)ncn1 | -11 | 0.00517 µM [falling, full curve, poor fit] |  |
| Cc1cc(C(=O)COC(=O)c2ccc(NC(=O)CC#N)cc2)c(C)n1CCc1ccc(F)cc1 | -12.3 |  | 20.6 µM [rising, partial curve] |
